Binding data for one substance are collected here from publication PMC3035021.

By UniProt entry, the sequences of proteins in these tests, tags left out.
UniProt Q13315: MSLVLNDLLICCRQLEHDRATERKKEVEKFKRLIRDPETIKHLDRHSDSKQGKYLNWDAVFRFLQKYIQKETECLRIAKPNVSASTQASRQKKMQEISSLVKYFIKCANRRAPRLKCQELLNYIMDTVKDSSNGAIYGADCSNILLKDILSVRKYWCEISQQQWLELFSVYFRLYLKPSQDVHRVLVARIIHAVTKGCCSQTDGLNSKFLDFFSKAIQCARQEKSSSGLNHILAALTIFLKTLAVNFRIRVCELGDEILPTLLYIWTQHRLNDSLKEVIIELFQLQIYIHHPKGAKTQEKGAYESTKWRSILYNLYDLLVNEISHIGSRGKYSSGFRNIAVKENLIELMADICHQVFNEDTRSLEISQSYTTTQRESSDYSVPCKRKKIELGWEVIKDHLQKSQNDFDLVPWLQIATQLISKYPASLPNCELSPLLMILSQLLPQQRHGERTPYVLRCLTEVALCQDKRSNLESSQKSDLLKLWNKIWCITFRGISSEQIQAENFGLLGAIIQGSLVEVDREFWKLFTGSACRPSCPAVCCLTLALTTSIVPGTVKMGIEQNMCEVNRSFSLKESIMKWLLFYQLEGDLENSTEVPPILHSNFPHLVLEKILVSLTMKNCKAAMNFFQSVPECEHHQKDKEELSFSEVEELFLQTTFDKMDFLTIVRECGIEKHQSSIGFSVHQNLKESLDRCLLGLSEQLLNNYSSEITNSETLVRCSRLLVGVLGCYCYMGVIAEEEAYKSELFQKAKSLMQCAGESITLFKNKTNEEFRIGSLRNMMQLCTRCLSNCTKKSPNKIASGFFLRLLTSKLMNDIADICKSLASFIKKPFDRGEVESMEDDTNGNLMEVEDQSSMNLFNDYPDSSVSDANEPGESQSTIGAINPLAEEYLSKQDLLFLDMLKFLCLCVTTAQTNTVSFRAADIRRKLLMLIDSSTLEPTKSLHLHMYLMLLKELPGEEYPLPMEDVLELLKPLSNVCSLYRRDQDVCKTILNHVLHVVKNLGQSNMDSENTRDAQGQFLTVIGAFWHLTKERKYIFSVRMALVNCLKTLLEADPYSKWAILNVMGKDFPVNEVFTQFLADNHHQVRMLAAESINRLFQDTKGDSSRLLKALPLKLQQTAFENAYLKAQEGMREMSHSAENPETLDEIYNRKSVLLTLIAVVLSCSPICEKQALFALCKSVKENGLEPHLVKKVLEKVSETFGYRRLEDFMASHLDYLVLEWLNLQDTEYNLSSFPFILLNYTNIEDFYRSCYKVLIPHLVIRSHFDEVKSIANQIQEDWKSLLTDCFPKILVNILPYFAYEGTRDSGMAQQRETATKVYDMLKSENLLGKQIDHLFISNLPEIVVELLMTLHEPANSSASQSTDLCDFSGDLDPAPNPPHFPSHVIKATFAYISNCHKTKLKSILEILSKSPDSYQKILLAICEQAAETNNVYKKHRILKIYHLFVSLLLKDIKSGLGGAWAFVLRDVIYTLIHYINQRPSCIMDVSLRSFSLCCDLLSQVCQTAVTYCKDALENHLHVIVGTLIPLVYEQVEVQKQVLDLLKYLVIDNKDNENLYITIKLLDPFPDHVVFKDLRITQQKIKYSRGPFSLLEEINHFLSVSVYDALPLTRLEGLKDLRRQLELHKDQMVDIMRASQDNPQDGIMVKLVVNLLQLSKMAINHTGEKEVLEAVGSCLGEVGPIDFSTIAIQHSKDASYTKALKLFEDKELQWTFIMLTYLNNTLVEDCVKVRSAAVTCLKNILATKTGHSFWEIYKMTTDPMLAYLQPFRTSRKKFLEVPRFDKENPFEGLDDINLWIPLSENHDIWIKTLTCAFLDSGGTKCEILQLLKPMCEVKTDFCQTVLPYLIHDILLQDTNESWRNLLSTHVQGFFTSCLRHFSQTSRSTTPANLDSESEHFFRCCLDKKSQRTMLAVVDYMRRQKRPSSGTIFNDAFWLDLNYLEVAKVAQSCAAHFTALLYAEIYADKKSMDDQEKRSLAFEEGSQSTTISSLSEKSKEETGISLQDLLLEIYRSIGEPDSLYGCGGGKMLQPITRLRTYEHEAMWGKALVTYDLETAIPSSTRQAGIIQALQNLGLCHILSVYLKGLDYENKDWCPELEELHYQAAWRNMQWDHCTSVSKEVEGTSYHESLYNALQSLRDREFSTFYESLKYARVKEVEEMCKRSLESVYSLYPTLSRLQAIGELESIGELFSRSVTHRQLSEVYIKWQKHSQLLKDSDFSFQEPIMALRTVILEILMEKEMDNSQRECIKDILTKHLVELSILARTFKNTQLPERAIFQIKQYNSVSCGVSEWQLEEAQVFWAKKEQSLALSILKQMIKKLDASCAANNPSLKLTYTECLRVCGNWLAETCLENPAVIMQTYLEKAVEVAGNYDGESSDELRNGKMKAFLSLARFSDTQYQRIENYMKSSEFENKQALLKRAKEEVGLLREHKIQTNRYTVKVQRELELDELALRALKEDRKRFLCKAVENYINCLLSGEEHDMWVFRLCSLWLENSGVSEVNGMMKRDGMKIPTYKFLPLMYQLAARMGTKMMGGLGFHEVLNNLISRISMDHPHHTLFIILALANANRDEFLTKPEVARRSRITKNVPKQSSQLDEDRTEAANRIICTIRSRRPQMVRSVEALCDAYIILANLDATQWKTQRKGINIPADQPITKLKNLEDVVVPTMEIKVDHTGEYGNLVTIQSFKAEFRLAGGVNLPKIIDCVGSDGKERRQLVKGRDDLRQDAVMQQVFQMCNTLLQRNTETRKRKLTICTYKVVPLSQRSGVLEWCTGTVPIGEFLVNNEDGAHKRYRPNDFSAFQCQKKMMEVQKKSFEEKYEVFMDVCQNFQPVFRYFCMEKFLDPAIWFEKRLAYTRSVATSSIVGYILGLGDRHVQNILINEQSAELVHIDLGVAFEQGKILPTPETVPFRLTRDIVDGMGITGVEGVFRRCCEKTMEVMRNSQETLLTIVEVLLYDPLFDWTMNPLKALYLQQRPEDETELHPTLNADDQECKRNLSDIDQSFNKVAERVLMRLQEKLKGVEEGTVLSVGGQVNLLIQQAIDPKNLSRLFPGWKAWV
UniProt Q14839: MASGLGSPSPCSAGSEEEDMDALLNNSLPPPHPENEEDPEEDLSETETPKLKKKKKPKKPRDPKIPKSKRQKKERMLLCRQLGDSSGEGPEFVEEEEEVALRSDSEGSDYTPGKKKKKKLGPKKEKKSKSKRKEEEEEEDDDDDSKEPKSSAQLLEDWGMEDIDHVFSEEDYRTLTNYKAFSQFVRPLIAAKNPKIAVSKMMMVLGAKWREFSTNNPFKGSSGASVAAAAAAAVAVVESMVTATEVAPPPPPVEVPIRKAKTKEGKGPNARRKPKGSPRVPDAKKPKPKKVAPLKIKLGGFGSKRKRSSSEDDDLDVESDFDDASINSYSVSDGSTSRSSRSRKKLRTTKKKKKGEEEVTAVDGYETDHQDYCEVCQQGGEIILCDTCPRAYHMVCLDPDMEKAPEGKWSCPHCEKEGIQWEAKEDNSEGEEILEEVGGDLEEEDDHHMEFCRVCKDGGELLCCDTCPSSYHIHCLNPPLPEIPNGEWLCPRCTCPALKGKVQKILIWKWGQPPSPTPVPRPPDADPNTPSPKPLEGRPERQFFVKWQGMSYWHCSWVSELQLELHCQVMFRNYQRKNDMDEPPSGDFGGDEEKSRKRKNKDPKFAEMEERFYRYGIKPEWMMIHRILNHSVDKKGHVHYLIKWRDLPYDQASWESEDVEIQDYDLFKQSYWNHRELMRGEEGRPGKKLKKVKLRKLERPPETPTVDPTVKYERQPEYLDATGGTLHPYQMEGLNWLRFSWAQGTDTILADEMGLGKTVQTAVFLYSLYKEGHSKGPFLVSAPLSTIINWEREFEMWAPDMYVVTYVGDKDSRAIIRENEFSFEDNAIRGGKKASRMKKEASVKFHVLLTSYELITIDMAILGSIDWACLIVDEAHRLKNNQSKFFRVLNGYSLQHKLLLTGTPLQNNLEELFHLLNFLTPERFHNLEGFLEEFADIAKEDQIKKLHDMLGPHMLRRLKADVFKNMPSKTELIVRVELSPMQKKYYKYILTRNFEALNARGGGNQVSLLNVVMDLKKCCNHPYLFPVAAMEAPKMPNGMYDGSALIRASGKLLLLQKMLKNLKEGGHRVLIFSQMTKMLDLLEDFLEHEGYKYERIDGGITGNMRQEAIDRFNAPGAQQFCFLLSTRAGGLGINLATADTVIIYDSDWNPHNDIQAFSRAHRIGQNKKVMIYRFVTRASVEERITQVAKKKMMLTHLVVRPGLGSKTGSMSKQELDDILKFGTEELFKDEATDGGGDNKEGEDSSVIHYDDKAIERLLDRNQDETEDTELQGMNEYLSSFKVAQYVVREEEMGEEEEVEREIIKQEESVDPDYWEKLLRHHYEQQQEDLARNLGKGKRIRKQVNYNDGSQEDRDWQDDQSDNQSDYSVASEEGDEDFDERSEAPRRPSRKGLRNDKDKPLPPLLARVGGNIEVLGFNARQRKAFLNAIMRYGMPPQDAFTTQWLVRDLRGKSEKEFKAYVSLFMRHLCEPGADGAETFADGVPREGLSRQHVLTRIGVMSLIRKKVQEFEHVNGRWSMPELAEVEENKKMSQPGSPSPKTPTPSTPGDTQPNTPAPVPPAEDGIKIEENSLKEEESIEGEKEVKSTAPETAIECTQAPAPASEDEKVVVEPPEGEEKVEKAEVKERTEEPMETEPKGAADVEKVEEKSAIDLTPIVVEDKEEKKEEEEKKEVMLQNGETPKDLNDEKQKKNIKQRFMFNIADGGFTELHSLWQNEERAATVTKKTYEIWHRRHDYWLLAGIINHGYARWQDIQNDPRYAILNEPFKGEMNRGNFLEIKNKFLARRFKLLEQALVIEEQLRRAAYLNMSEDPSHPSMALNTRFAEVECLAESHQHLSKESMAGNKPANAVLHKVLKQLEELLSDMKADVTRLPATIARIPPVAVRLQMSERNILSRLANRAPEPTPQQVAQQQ

This experiment deals with ATM kinase (human (endogenous in HeLa or C3ABR)) (UniProt Q13315). Briefly: co-IP; endogenous proteins; lysates of cells mock irradiated or 6 Gy IR (1 hr), immunoprecipitated with anti-ATM, anti-CHD4 or IgG, protein A and G beads; lysis buffer 50 mM Tris-HCl pH 7.4, 150 mM NaCl, 0.2% Triton-X 100, 0.3% Igepal CA-630; western blot. On the technique in general: A western blot detects proteins with antibodies after separation by electrophoresis.

Results are given in words; binding and its absence hold for the method and conditions named. Binding seen in cells or lysates may run through a third protein. Some entries that bind do so weakly or less than the wild type.

Regarding “chromodomain helicase DNA-binding protein (CHD4) (from UniProt Q14839 1-1912)”, the binding result is given as “binds”.
